The results in this text go back to article PMC7819943, “Rice protein-binding microarrays: a tool to detect cis-acting elements near promoter regions in rice”.

Some of the results follow.

In this test the target is T1, OsSMF1 (Oryza sativa, UniProt Q6ZLB0 1-436).
T1 sequence: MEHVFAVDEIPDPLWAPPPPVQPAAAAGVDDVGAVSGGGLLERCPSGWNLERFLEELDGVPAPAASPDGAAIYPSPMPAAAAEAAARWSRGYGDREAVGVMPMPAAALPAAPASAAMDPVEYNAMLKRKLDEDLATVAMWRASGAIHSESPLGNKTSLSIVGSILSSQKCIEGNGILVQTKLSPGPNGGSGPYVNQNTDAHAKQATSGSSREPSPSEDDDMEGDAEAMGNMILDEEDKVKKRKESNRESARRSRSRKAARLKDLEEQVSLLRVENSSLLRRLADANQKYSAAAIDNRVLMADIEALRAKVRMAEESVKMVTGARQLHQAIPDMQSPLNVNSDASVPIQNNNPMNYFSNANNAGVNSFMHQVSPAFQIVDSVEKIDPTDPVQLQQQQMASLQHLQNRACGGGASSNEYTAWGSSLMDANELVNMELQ
Nature of the test: protein-binding microarray (RPBM); PBS, 2% BSA, 51.3 ng/ul salmon testes DNA, 50 uM zinc acetate, 200 nM TF, 25 C, 1 h; high values mean tight binding. The note with it: protein: recombinant; tags: N-terminal polyhistidine and DsRed monomer fusion (pET32a); chain copies: 2; label: CyDye5-dUTP incorporated in the synthesized complementary strand; 3' TTTTT single-stranded linker to array surface; dsDNA, one strand shown. The essentials:
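Binding signal is defined as the fluorescence intensity of each feature in arbitrary units, read on an Axon 4000B scanner. Transcription factors with N-terminal polyhistidine and DsRed fusions came from E. coli BL21-CodonPlus and were purified on Ni–NTA. They were incubated at 200 nM for 1 h at 25 °C on a custom Agilent array that had been made double-stranded with Cy5-dUTP, with 50 µM zinc acetate present, and the array was washed.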
In the case of “AATACTGTCCACTAGACAAATCTCACCTGCCTCTCCATCCCGGAGTCACCTAGTGCAG”, the binding signal is 3460 fluorescence intensity (a.u.).

“GTCTCCTCGATTCCGATCCGGCGCCGGCGGCCATGGCCGACGGAGTCACCTAGTGCAG”: the binding signal is 3150 fluorescence intensity (a.u.).

As to “GACTTATTGGAGATGACAAGGCAAACCAGATTCTTGAAGCCGGAGTCACCTAGTGCAG”, the binding signal is 34400 fluorescence intensity (a.u.).

With “AAGATCTGTATGCCTCATGAGGGTTGGTGTGTAATACTCCCGGAGTCACCTAGTGCAG”, the binding signal is 3890 fluorescence intensity (a.u.).

Regarding “CCCACTCTCGTCGTACGTACGTGTCCTCGGCTATATATACCGGAGTCACCTAGTGCAG”, the binding signal was 6500 fluorescence intensity (a.u.).

For “GCTGCTGCCTCGTCTCCGCTGCCGCGTCGCCCGTCACCGGCGGAGTCACCTAGTGCAG”, the binding signal was 4380 fluorescence intensity (a.u.).

“TATTCTGATGGCTTAAAATTGTTGATGATGTGGCTTCTTGCGGAGTCACCTAGTGCAG”: the binding signal was 15600 fluorescence intensity (a.u.).

“TGTGATTGGTGCCACCTCCTCCTCCTCTGCCTCTCTCCTCCGGAGTCACCTAGTGCAG”: the binding signal was 4980 fluorescence intensity (a.u.).

Turning to “GCGCATTCGCGTCAGCATGTATTATAGTTTGTGTTTCAAACGGAGTCACCTAGTGCAG”, the binding signal was 6220 fluorescence intensity (a.u.).

Take “GAACCTGTTTATCACCACGTATCAAATAACCCACTTAAAGCGGAGTCACCTAGTGCAG”: the binding signal was 3740 fluorescence intensity (a.u.).

As for “TTGGTATCCTTGTGCACTTGCATATTTGCTGCGTGGCTTGCGGAGTCACCTAGTGCAG”, the binding signal is 3610 fluorescence intensity (a.u.).

For “GGAGTAGTGACCGTGTGTAGCCACGTGACATGTGCATGCCCGGAGTCACCTAGTGCAG”, the binding signal is 5500 fluorescence intensity (a.u.).

For the sequence “TGTGGTGGCTGAGTCATCGTGGGATCCACGTGGGCCCCACCGGAGTCACCTAGTGCAG”, the binding signal is 24700 fluorescence intensity (a.u.).

Consider “TTCCTATGGAGAATAGAAACTCGAAGCCCAAGATGGCACTCGGAGTCACCTAGTGCAG”, for which the binding signal was 26800 fluorescence intensity (a.u.).

Turning to “AGCAGTGTAGAGGAGGAGGAGGCGGCGGCGGCGGCGGCGGCGGAGTCACCTAGTGCAG”, the binding signal was 3880 fluorescence intensity (a.u.).

Turning to “GTTGCAGGTTGATGGCTTGAGCACACTGTCCCCTCCACCGCGGAGTCACCTAGTGCAG”, the binding signal was 3650 fluorescence intensity (a.u.).

For the sequence “ATCGAGCTAGGTAGGGCATAGGATCGGGTCGATCGAGGCGCGGAGTCACCTAGTGCAG”, the binding signal was 3310 fluorescence intensity (a.u.).

As to “CACCTGCTGAATGCTGACTGCAGTTCCCTGCGTAGTGAAACGGAGTCACCTAGTGCAG”, the binding signal is 3330 fluorescence intensity (a.u.).

In the case of “AATGCATTTTGATAGTTTAGGTTCTTCGGTGACACATATGCGGAGTCACCTAGTGCAG”, the binding signal was 4730 fluorescence intensity (a.u.).

In the case of “GGACCAGCTACCCTCAGTCAATGACTAGGTGGGACCGGAACGGAGTCACCTAGTGCAG”, the binding signal is 3880 fluorescence intensity (a.u.).

Consider “CATGACCGTGCTTCGTCATGTCGCCCTGTGCCGCCCCGCTCGGAGTCACCTAGTGCAG”, for which the binding signal was 6790 fluorescence intensity (a.u.).

Take “AAGTCAAGGCCAAGTCGTCGGGAACGTGGACATTCCGTAACGGAGTCACCTAGTGCAG”: the binding signal was 4030 fluorescence intensity (a.u.).

On to “AGCGAGCGCGAGCCGAGTTGTGGGGTGTTGAGATCGCTCTCGGAGTCACCTAGTGCAG”, for which the binding signal is 22600 fluorescence intensity (a.u.).

As for “CTTAAAAGATTCGTATCGCAATTTACACGCAATTTGTGTACGGAGTCACCTAGTGCAG”, the binding signal is 3200 fluorescence intensity (a.u.).

On to “CCTTCCTACACCTCGCCACCTCCCGCACACCTCGTCGCCCCGGAGTCACCTAGTGCAG”, for which the binding signal was 3460 fluorescence intensity (a.u.).

“TTTTCTAGACAATACGTGCACGATAATACGAGAGCCCGCTCGGAGTCACCTAGTGCAG”: the binding signal was 3490 fluorescence intensity (a.u.).

For the sequence “CACTCCCGACCCTTTCCGCATCATCACGCTCACGCAGCCCCGGAGTCACCTAGTGCAG”, the binding signal was 5290 fluorescence intensity (a.u.).

For “CGCGGATCGGCCGCGAGGCGCACGTGGACATCACCACCAACGGAGTCACCTAGTGCAG”, the binding signal was 4220 fluorescence intensity (a.u.).

On to “AAATGTTTATTATAGCACCACATTGTCAGATCATAGAGCACGGAGTCACCTAGTGCAG”, for which the binding signal is 3450 fluorescence intensity (a.u.).

Regarding “CATATCTCTGCAGTATGTGTTACACTGTCATCTTTTCATGCGGAGTCACCTAGTGCAG”, the binding signal was 4380 fluorescence intensity (a.u.).

“GATATGATTATTTATTTCTTTAAATGAAAATCATGTGTAACGGAGTCACCTAGTGCAG”: the binding signal was 32500 fluorescence intensity (a.u.).

For the sequence “AGACCATGCTCCCGGAGCGCGTCGACAAGCTCGGCGACGCCGGAGTCACCTAGTGCAG”, the binding signal is 3450 fluorescence intensity (a.u.).

In the case of “CGATGACTCGTAATTTAATGTTTCATACCTCGCTTTATACCGGAGTCACCTAGTGCAG”, the binding signal is 3530 fluorescence intensity (a.u.).

With “GTCGGTGTCGACGTCGGCCACCGACACGTCGTCCGCCGCGCGGAGTCACCTAGTGCAG”, the binding signal was 5560 fluorescence intensity (a.u.).

“CAATAAACCGGTGGTTGGACCGGTCCAACCAATAAACCAGCGGAGTCACCTAGTGCAG”: the binding signal was 43900 fluorescence intensity (a.u.).

Turning to “GCTGCAGCCATACATGACGACGCTTCAATTAGCATGTACTCGGAGTCACCTAGTGCAG”, the binding signal was 4260 fluorescence intensity (a.u.).

On to “CAGACTCGCAGCCACTGGAACGCGAAATATTTCGGCTCCTCGGAGTCACCTAGTGCAG”, for which the binding signal was 3190 fluorescence intensity (a.u.).

On to “CCGCCAGTGAAATCACGGCCGGTTTAACCTCTACATATATCGGAGTCACCTAGTGCAG”, for which the binding signal was 32300 fluorescence intensity (a.u.).

As for “CATGCTATGTCTCAGAAAGATATATGACTGACTCAGGTCTCGGAGTCACCTAGTGCAG”, the binding signal is 4060 fluorescence intensity (a.u.).

With “TCCGTTCTGTTTATGAATAACGGTCGAAAACGTAATAACCCGGAGTCACCTAGTGCAG”, the binding signal is 46300 fluorescence intensity (a.u.).

In the case of “GTGTTGGTTTCTACCATTAAATCCACATATTAATCATCCTCGGAGTCACCTAGTGCAG”, the binding signal is 3440 fluorescence intensity (a.u.).

With “ATCGCCCATGTGCGCGCATCACCGTCACCACGCCTGCCTTCGGAGTCACCTAGTGCAG”, the binding signal is 4140 fluorescence intensity (a.u.).
